PubChem BioAssay AID1259308 – NCATS | 2017

Purpose: 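Genes whose loss raises luciferase production in HEK293 cells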 (primary screen)
Cell system: human HEK293 embryonic kidney cells stably expressing firefly luciferase (HEK-CMV-Luc2-Hygro)
Knock-down reagent: single siRNA against human genes, 0.8 pmol siRNA per well
Time to read-out: 72 h
Read-out: 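Luciferase light (ONE-Glo) measured on one replicate plate set and viability (CellTiter-Glo) on the other, scaled to a negative control siRNA, with robust z-scores and luciferase per cell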
Reading the numbers: total luciferase, z-score and total luciferase, % of control: higher = more reporter protein produced
Rule for the call: 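An siRNA counts as active if its total luciferase robust z-score exceeds 3; genes with two or more such siRNAs out of three were retested with fresh siRNAs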
Calls: active = raised luciferase; inactive = no rise
The whole screen tested about 59,000 reagents; below is a random part of them. Of all reagents, about 1,510 (2.6%) were called active. 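Calls use total luciferase alone and ignore viability, so some active siRNAs may act by altering cell number.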 Further read-outs or replicates are left out here.

YBX1P6 (GeneID 402375) [SID160767436]
- total luciferase, z-score: -0.783
- total luciferase, % of control: 66.3
- call: inactive

YBX1P6 (GeneID 402375) [SID160767438]
- total luciferase, z-score: 0.372
- total luciferase, % of control: 89.3
- call: inactive

YBX1P6 (GeneID 402375) [SID160767439]
- total luciferase, z-score: 2.41
- total luciferase, % of control: 130
- call: inactive

PRIMPOL (GeneID 201973) [SID160761040]
- total luciferase, z-score: 0.559
- total luciferase, % of control: 93
- call: inactive

PRIMPOL (GeneID 201973) [SID160761041]
- total luciferase, z-score: -0.152
- total luciferase, % of control: 78.9
- call: inactive

PRIMPOL (GeneID 201973) [SID160761042]
- total luciferase, z-score: -0.771
- total luciferase, % of control: 66.5
- call: inactive

CCPG1 (GeneID 9236) [SID160721781]
- total luciferase, z-score: -1.22
- total luciferase, % of control: 57.7
- call: inactive

CCPG1 (GeneID 9236) [SID160721783]
- total luciferase, z-score: -2.17
- total luciferase, % of control: 38.7
- call: inactive

CCPG1 (GeneID 9236) [SID160721784]
- total luciferase, z-score: 1.74
- total luciferase, % of control: 116
- call: inactive

BCL2L14 (GeneID 79370) [SID160748845]
- total luciferase, z-score: -0.963
- total luciferase, % of control: 62.7
- call: inactive

BCL2L14 (GeneID 79370) [SID160748846]
- total luciferase, z-score: 0.421
- total luciferase, % of control: 90.3
- call: inactive

BCL2L14 (GeneID 79370) [SID160748847]
- total luciferase, z-score: -0.797
- total luciferase, % of control: 66
- call: inactive

SUPT16H (GeneID 11198) [SID160730183]
- total luciferase, z-score: 0.62
- total luciferase, % of control: 94.2
- call: inactive

SUPT16H (GeneID 11198) [SID160730184]
- total luciferase, z-score: 1.86
- total luciferase, % of control: 119
- call: inactive

SUPT16H (GeneID 11198) [SID160730185]
- total luciferase, z-score: 2.02
- total luciferase, % of control: 122
- call: inactive

DYNC2LI1 (GeneID 51626) [SID160741109]
- total luciferase, z-score: 1.34
- total luciferase, % of control: 109
- call: inactive

DYNC2LI1 (GeneID 51626) [SID160741110]
- total luciferase, z-score: 1.48
- total luciferase, % of control: 111
- call: inactive

DYNC2LI1 (GeneID 51626) [SID160741111]
- total luciferase, z-score: 0.0343
- total luciferase, % of control: 82.6
- call: inactive

MRPL23 (GeneID 6150) [SID160716067]
- total luciferase, z-score: -0.428
- total luciferase, % of control: 73.4
- call: inactive

MRPL23 (GeneID 6150) [SID160716068]
- total luciferase, z-score: 1.21
- total luciferase, % of control: 106
- call: inactive

MRPL23 (GeneID 6150) [SID160733710]
- total luciferase, z-score: 0.581
- total luciferase, % of control: 93.4
- call: inactive

Ordered by “total luciferase, z-score” (highest first): some entries from above
YBX1P6 (GeneID 402375) [SID160767439]
- total luciferase, z-score: 2.41
- total luciferase, % of control: 130
- call: inactive

YBX1P6 (GeneID 402375) [SID160767438]
- total luciferase, z-score: 0.372
- total luciferase, % of control: 89.3
- call: inactive
